## Library screening results

Amino acid sequences for entries named in this document (tags omitted).
UniProt E9BF75, entry or part of it: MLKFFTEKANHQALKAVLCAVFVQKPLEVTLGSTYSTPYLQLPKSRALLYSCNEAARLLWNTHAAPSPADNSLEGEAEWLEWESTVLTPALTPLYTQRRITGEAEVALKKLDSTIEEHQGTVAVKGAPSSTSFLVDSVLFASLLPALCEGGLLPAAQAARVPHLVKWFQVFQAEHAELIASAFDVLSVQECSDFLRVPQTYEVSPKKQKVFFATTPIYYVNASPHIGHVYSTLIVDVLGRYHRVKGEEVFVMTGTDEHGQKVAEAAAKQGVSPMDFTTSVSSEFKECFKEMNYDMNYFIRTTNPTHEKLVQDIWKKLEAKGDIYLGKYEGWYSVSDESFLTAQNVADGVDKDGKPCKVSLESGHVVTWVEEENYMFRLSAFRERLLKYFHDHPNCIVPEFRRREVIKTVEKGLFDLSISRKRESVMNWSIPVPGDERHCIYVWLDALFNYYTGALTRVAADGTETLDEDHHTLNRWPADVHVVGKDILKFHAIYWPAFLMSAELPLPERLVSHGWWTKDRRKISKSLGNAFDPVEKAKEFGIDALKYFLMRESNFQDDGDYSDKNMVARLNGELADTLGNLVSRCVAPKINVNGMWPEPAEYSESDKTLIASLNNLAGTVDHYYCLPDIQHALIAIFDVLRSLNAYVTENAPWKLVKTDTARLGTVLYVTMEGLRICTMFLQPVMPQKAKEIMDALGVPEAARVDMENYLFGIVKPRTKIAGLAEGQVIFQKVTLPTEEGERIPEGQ

Data taken from ChEMBL document CHEMBL3988442, “University of Dundee, Small-Polar-MMV Screening Library” (2021).

Mtb heat-shock: 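Assay on Mycobacterium tuberculosis, filed only as a heat shock assay from Cornell; the read-out is not stated. The concentration is filed as 10 mM, unlikely as a test dose, so the dose is not known. The record gives no direction; compounds that gave an IC50 in retests scored well above the rest, so higher reads as stronger inhibition. About 69,000 compounds were tested under these conditions; 1.4% (about 930) showed 50% or more at least once.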
LdMetRS: 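Primary screen of methionyl-tRNA synthetase; the read-out is not stated. Target: Methionyl-tRNA synthetase (putative), Leishmania donovani (UniProt E9BF75). The test concentration is not given. Values are per cent inhibition. About 68,000 compounds were tested under these conditions; 0.035% (about 24) showed 50% or more at least once.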
Mtb growth Cornell: 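Whole-cell assay for inhibitors of Mycobacterium tuberculosis growth, labelled Cornell in the record; the read-out is not stated. The concentration is filed as 10 mM, unlikely as a test dose, so the dose is not known. The record gives no direction; compounds strong in two other growth screens of this library score well above the rest, so higher reads as stronger inhibition. About 53,000 compounds were tested under these conditions; 1.7% (about 900) showed 50% or more at least once.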

Results are percentages, as filed.
The record does not define 0% and 100%; most values in the screen are far below 50% and negative numbers occur (in some assays of this library far below -100).
This is an unselected part of the compounds tested.

* O=C1NC(c2ccccc2)=N[C@@]12CC[C@@H]1CN(Cc3ccncc3)C[C@@H]12 : LdMetRS: 13.36%
* CCCC(C)NCc1cccnc1N1CCN(c2ccccn2)CC1 (configuration not stated) : Mtb heat-shock: 5.093%; LdMetRS: 8.075%
* Cc1cccc(CN2CCC3(CCCN(C(=O)NC(C)C)C3)C2=O)n1.O=C(O)C(F)(F)F (configuration not stated) : Mtb heat-shock: 16.44%; Mtb growth Cornell: 31.08%
* Cl.O=C1CC2(CCCNC2)C(=O)N1Cc1cccc(F)c1 (configuration not stated) : Mtb heat-shock: -11.34%; Mtb growth Cornell: 16.39%
* O=S(=O)(C1CC1)N1CCOC2(CCCN(c3cccc(F)c3)C2)C1 (configuration not stated) : Mtb heat-shock: 11.51%; LdMetRS: 8.271%; Mtb growth Cornell: 0.2126%
* CN1Cc2c(C(=O)Nc3cccnc3)ncn2-c2ccccc2S1(=O)=O.O=C(O)C(F)(F)F : Mtb heat-shock: -20.32%; Mtb growth Cornell: -3.457%
* O=C(NC1CCCc2c1[nH]c1ccc(F)cc21)c1n[nH]c2c1CCC2 (configuration not stated) : Mtb heat-shock: -15.78%; LdMetRS: 14.4%; Mtb growth Cornell: 5.755%
* CCOCC1CN(C(=O)c2ccncn2)Cc2cnn(C)c21.O=C(O)C(F)(F)F (configuration not stated) : Mtb heat-shock: -4.665%; Mtb growth Cornell: -7.913%
* CCOC1CCN(C(=O)Nc2ccc(=O)n(C)c2)CC1 : Mtb heat-shock: -7.79%; LdMetRS: 12.22%
* Cc1cccc(OC2CCN(C(=O)c3ccc4c(c3)OCO4)CC2)n1 : Mtb heat-shock: -1.376%; LdMetRS: 19.88%; Mtb growth Cornell: 37.52%
* O=C(O)C(F)(F)F.[H][C@@]12COC[C@@H](C(=O)N3CCCCO3)[C@]1([H])CN(Cc1c(C)noc1C)C2 : Mtb heat-shock: -3.514%; Mtb growth Cornell: -23.44%
* Cc1nc(C2CCN(C(=O)c3cccnc3)CC2)c2sccn12 : Mtb heat-shock: -8.812%; LdMetRS: 12.67%; Mtb growth Cornell: -1.922%
* C1CN(CC2CCOCC2)Cc2c(COCC3CC3)nnn2C1.O=C(O)C(F)(F)F : Mtb heat-shock: -5.403%; Mtb growth Cornell: -3.619%
* COc1ccc(OC)c(C(O)CN2CC(n3cccn3)C2)c1 (configuration not stated) : Mtb heat-shock: 15.83%; LdMetRS: 15.31%
* CCc1nc(C2CCCN2CC(=O)Nc2sc(C)c(C)c2C)no1 (configuration not stated) : Mtb heat-shock: -28.59%; LdMetRS: 10.12%; Mtb growth Cornell: -38.28%
* Cn1cc(N2CC3(CCN(CC4CCC4)CC3)OCC2=O)cn1.O=C(O)C(F)(F)F : Mtb heat-shock: 10.75%; Mtb growth Cornell: 23.28%
* CCOC(=O)N1CCN(C(=O)c2sc(-c3ccccc3)nc2C)CC1 : Mtb heat-shock: -32.15%; LdMetRS: 5.686%; Mtb growth Cornell: -35.92%
* [H][C@]12CC[C@]([H])(CN(Cc3cscn3)C1)N(C(=O)c1ccnc(OC)c1)C2 : Mtb heat-shock: 14.97%; Mtb growth Cornell: 0.5073%
* NC(=O)c1cnn2c1NCC(CNC1(c3ccccc3)CCC1)C2 (configuration not stated) : Mtb heat-shock: 19.07%; LdMetRS: 17.72%; Mtb growth Cornell: -4.441%
* Cc1ccc(CN2CCCC3(CCN(Cc4ccc(C)o4)C3)C2)o1 (configuration not stated) : Mtb heat-shock: -0.07026%; LdMetRS: 14.84%; Mtb growth Cornell: 33.18%
* COc1cc(-c2cnnc(NCCCOC(C)C)n2)cc(OC)c1OC : Mtb heat-shock: -5.188%; LdMetRS: 0.5587%; Mtb growth Cornell: -12.07%
* Cc1cc(C)n(CC(=O)N2CCC(c3cc4cccnc4[nH]3)CC2)n1 : Mtb heat-shock: -12.57%; LdMetRS: -42.02%; Mtb growth Cornell: -8.228%
* CC(C)CNC(=O)CN(Cc1ccc(F)cc1)S(C)(=O)=O : Mtb heat-shock: 14.24%; LdMetRS: 21.92%; Mtb growth Cornell: 17.34%
* [H][C@@]12C[C@H](C(=O)NCc3ccccc3)[C@@]([H])(CN(S(=O)(=O)C3CC3)C1)O2 : Mtb heat-shock: 13.94%; Mtb growth Cornell: 6.434%
* Cc1ccc2c(c1)c(C)cc(=O)n2CCC#N : Mtb heat-shock: -6.103%; LdMetRS: 0.7194%; Mtb growth Cornell: -10.93%
* CCN(C(=O)CN1CCC(c2cc3ccccc3[nH]2)CC1)C1CC1 : Mtb heat-shock: -54.62%; LdMetRS: 4.57%; Mtb growth Cornell: -46.23%
* CC1CC(=O)c2cc(C(=O)N3CCc4ccccc4C3)c(=O)[nH]c2C1 (configuration not stated) : Mtb heat-shock: -2.196%; LdMetRS: 18.13%; Mtb growth Cornell: 13.76%
* [H][C@]12CCCN(S(=O)(=O)c3cccc(F)c3)[C@@]1([H])CN(C(=O)C1CC1)C2 : Mtb heat-shock: -3.043%; Mtb growth Cornell: 3.14%

Repeated from the top, 2 entries:

{"smiles": "O=C1NC(c2ccccc2)=N[C@@]12CC[C@@H]1CN(Cc3ccncc3)C[C@@H]12", "LdMetRS": 13.36}
{"smiles": "CCCC(C)NCc1cccnc1N1CCN(c2ccccn2)CC1", "stereo": "configuration not stated", "Mtb heat-shock": 5.093, "LdMetRS": 8.075}